The assay has as its target T1, human CSF3 protein (human), P09919.
T1 chain: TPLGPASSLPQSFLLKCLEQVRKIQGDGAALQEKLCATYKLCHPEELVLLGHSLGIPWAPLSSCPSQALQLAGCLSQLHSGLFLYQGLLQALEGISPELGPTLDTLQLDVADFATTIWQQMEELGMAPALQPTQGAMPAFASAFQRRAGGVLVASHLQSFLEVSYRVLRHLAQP
The assay is described as follows: high-mass MALDI MS, 'cross-validation experiment' on the antigen alone. As to conditions: remark: other sources report otherwise.

These are yes or no findings as the source states them, for the method shown. Some results given as binding are weak or reduced against the parent protein; the word gives no strength.

B1: human CSF3 protein, P09919 31-207 (ligand)
chain: TPLGPASSLPQSFLLKCLEQVRKIQGDGAALQEKLCATYKLCHPEELVLLGHSLGIPWAPLSSCPSQALQLAGCLSQLHSGLFLYQGLLQALEGISPELGPTLDTLQLDVADFATTIWQQMEELGMAPALQPTQGAMPAFASAFQRRAGGVLVASHLQSFLEVSYRVLRHLAQP
With B1, the binding result is “binds”.

Values taken from patent EP4803540A1 (FNCTBiotech Inc., dated 2026).
